The list does not hold the whole screen: it covers a few groups of compounds. Other doses and runs of a compound may be missing. T/C gives the treated animals as a percentage of the vehicle group. For survival time, the PubChem record calls one and a half times the control and up active, and a quarter to a half above the control has no call in these data; cut-offs in other NCI protocols can differ. Some T/C values are marked as having no survivor count here; that says nothing about deaths at the dose. Schedules are NCI's codes, read here as Q, the interval in days (D) or hours (H), X, the number of doses. Some doses were run more than once; their values stand side by side, smallest first.
Test system: BDF1 mice, P388 leukemia ip, median survival T/C
Test: NCI In Vivo Anticancer Drug Screen. Data for tumor model P388 Leukemia (intraperitoneal) in B6D2F1 (BDF1) mice
Conditions: T/C endpoint: median survival time, higher T/C = longer survival
Procedure, shortened: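 Vehicle-dosed animals serve as the reference; survival of compound-dosed, tumour-implanted mice is divided by it.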

[1] = dose: 3.0 mg/kg/injection, schedule: Q01DX009 (ip), vehicle: Klucel (hydroxypropylcellulose) (HPC)
[2] = dose: 6.25 mg/kg/injection, schedule: Q01DX009 (ip), vehicle: saline
[3] = dose: 12.5 mg/kg/injection, schedule: Q01DX009 (ip), vehicle: saline

SMILES: O=C(CCN(CCCl)CCCl)c1cccc([N+](=O)[O-])c1
- T/C [1]: 153 % of control [survivor count not shown]
- T/C (dose: 6.0 mg/kg/injection, schedule: Q01DX009 (ip), vehicle: Klucel (hydroxypropylcellulose) (HPC)): 163 % of control [survivor count not shown]
- T/C (dose: 12.0 mg/kg/injection, schedule: Q01DX009 (ip), vehicle: Klucel (hydroxypropylcellulose) (HPC)): 203 % of control [survivor count not shown]
- T/C (dose: 12.5 mg/kg/injection, schedule: Q01DX009 (ip), vehicle: carboxymethylcellulose (CMC)): 268 % of control [survivor count not shown]
- T/C (dose: 25.0 mg/kg/injection, schedule: Q01DX009 (ip), vehicle: carboxymethylcellulose (CMC)): 89 % of control [survivor count not shown]

SMILES: N#CC(C#N)=Cc1ccc(N(CCCl)CCCl)cc1
- T/C (dose: 100.0 mg/kg/injection, schedule: Q04DX003 (ip), vehicle: saline with Tween-80): 118 % of control [survivor count not shown]
- T/C (dose: 200.0 mg/kg/injection, schedule: Q04DX003 (ip), vehicle: saline with Tween-80): 131 % of control [survivor count not shown]
- T/C (dose: 264.0 mg/kg/injection, schedule: Q04DX003 (ip), vehicle: saline with Tween-80): 120 % of control [survivor count not shown]
- T/C (dose: 400.0 mg/kg/injection, schedule: Q04DX003 (ip), vehicle: saline with Tween-80): 116 [survivor count not shown] and 222 % of control [survivor count not shown]
- T/C (dose: 600.0 mg/kg/injection, schedule: Q04DX003 (ip), vehicle: saline with Tween-80): 137 % of control [survivor count not shown]

SMILES: O=C(O)CCc1ccc(CN(CCCl)CCCl)cc1
- T/C (dose: 1.25 mg/kg/injection, schedule: Q04DX003 (ip), vehicle: saline with Tween-80): 145 % of control [survivor count not shown]
- T/C (dose: 1.65 mg/kg/injection, schedule: Q04DX003 (ip), vehicle: saline): 105 % of control [survivor count not shown]
- T/C (dose: 2.5 mg/kg/injection, schedule: Q04DX003 (ip), vehicle: saline with Tween-80): 163 % of control [survivor count not shown]
- T/C (dose: 2.5 mg/kg/injection, schedule: Q04DX003 (ip), vehicle: saline): 135 % of control [survivor count not shown]
- T/C (dose: 3.75 mg/kg/injection, schedule: Q04DX003 (ip), vehicle: saline): 130 % of control [survivor count not shown]
- T/C (dose: 5.0 mg/kg/injection, schedule: Q04DX003 (ip), vehicle: saline with Tween-80): 90 % of control [survivor count not shown]

SMILES: CCCCOc1ccc(N(CCCl)CCCl)cc1
- T/C (dose: 6.25 mg/kg/injection, schedule: Q01DX009 (ip), vehicle: saline with Tween-80): 129 % of control [survivor count not shown]
- T/C [2]: 95 % of control [survivor count not shown]
- T/C (dose: 12.5 mg/kg/injection, schedule: Q01DX009 (ip), vehicle: saline with Tween-80): 104 % of control [survivor count not shown]
- T/C [3]: 120 % of control [survivor count not shown]
- T/C (dose: 16.0 mg/kg/injection, schedule: Q01DX009 (ip), vehicle: saline): 104 % of control [survivor count not shown]
- T/C (dose: 25.0 mg/kg/injection, schedule: Q01DX009 (ip), vehicle: saline with Tween-80): 170 % of control [survivor count not shown]
- T/C (dose: 25.0 mg/kg/injection, schedule: Q01DX009 (ip), vehicle: saline): 145 [survivor count not shown] and 208 % of control [survivor count not shown]
- T/C (dose: 35.0 mg/kg/injection, schedule: Q01DX009 (ip), vehicle: saline): 204 % of control [survivor count not shown]

SMILES: COc1ccc(C(=O)O)cc1N(CCCl)CCCl
- T/C (dose: 0.03 mg/kg/injection, schedule: Q01DX009 (ip), vehicle: Klucel (hydroxypropylcellulose) (HPC)): 104 % of control [survivor count not shown]
- T/C (dose: 0.06 mg/kg/injection, schedule: Q01DX009 (ip), vehicle: Klucel (hydroxypropylcellulose) (HPC)): 114 % of control [survivor count not shown]
- T/C (dose: 0.12 mg/kg/injection, schedule: Q01DX009 (ip), vehicle: Klucel (hydroxypropylcellulose) (HPC)): 114 % of control [survivor count not shown]
- T/C (dose: 0.25 mg/kg/injection, schedule: Q01DX009 (ip), vehicle: Klucel (hydroxypropylcellulose) (HPC)): 115 [survivor count not shown] and 172 % of control [survivor count not shown]
- T/C (dose: 0.5 mg/kg/injection, schedule: Q01DX009 (ip), vehicle: Klucel (hydroxypropylcellulose) (HPC)): 108 [survivor count not shown] and 209 % of control [survivor count not shown]
- T/C (dose: 1.0 mg/kg/injection, schedule: Q01DX009 (ip), vehicle: Klucel (hydroxypropylcellulose) (HPC)): 135 % of control [survivor count not shown]
- T/C (dose: 2.0 mg/kg/injection, schedule: Q01DX009 (ip), vehicle: Klucel (hydroxypropylcellulose) (HPC)): 153 [survivor count not shown] and 200 % of control [survivor count not shown]
- T/C (dose: 2.0 mg/kg/injection, schedule: Q04DX003 (ip), vehicle: Klucel (hydroxypropylcellulose) (HPC)): 154 % of control [survivor count not shown]
- T/C [1]: 210 % of control [survivor count not shown]
- T/C (dose: 3.0 mg/kg/injection, schedule: Q04DX003 (ip), vehicle: Klucel (hydroxypropylcellulose) (HPC)): 163 % of control [survivor count not shown]
- T/C (dose: 4.0 mg/kg/injection, schedule: Q01DX009 (ip), vehicle: Klucel (hydroxypropylcellulose) (HPC)): 151 % of control [survivor count not shown]
- T/C (dose: 4.0 mg/kg/injection, schedule: Q04DX003 (ip), vehicle: Klucel (hydroxypropylcellulose) (HPC)): 136 % of control [survivor count not shown]
- T/C (dose: 4.4 mg/kg/injection, schedule: Q01DX009 (ip), vehicle: Klucel (hydroxypropylcellulose) (HPC)): 240 % of control [survivor count not shown]
- T/C (dose: 6.6 mg/kg/injection, schedule: Q01DX009 (ip), vehicle: Klucel (hydroxypropylcellulose) (HPC)): 90 % of control [survivor count not shown]
- T/C (dose: 6.6 mg/kg/injection, schedule: Q04DX003 (ip), vehicle: Klucel (hydroxypropylcellulose) (HPC)): 186 % of control [survivor count not shown]
- T/C (dose: 8.0 mg/kg/injection, schedule: Q01DX009 (ip), vehicle: Klucel (hydroxypropylcellulose) (HPC)): 190 % of control [survivor count not shown]
- T/C (dose: 10.0 mg/kg/injection, schedule: Q04DX003 (ip), vehicle: Klucel (hydroxypropylcellulose) (HPC)): 231 % of control [survivor count not shown]
- T/C (dose: 15.0 mg/kg/injection, schedule: Q04DX003 (ip), vehicle: Klucel (hydroxypropylcellulose) (HPC)): 100 % of control [survivor count not shown]
- T/C (dose: 16.0 mg/kg/injection, schedule: Q01DX009 (ip), vehicle: Klucel (hydroxypropylcellulose) (HPC)): 123 % of control [survivor count not shown]

SMILES: CCC1(CC)NC(=O)N(CCN(CCCl)CCCl)C1=O
- T/C (dose: 0.04 mg/kg/injection, schedule: Q01DX009 (ip), vehicle: saline): 95 % of control [survivor count not shown]
- T/C (dose: 0.09 mg/kg/injection, schedule: Q01DX009 (ip), vehicle: saline): 105 % of control [survivor count not shown]
- T/C (dose: 0.19 mg/kg/injection, schedule: Q01DX009 (ip), vehicle: saline): 114 % of control [survivor count not shown]
- T/C (dose: 0.39 mg/kg/injection, schedule: Q01DX009 (ip), vehicle: saline): 128 % of control [survivor count not shown]
- T/C (dose: 0.78 mg/kg/injection, schedule: Q01DX009 (ip), vehicle: saline): 140 % of control [survivor count not shown]
- T/C (dose: 1.5 mg/kg/injection, schedule: Q01DX009 (ip), vehicle: saline): 104 % of control [survivor count not shown]
- T/C (dose: 1.56 mg/kg/injection, schedule: Q01DX009 (ip), vehicle: saline): 166 % of control [survivor count not shown]
- T/C (dose: 3.0 mg/kg/injection, schedule: Q01DX009 (ip), vehicle: saline): 103 % of control [survivor count not shown]
- T/C (dose: 3.12 mg/kg/injection, schedule: Q01DX009 (ip), vehicle: saline): 210 % of control [survivor count not shown]
- T/C (dose: 6.0 mg/kg/injection, schedule: Q01DX009 (ip), vehicle: saline): 107 % of control [survivor count not shown]
- T/C [2]: 263 % of control [survivor count not shown]
- T/C (dose: 12.0 mg/kg/injection, schedule: Q01DX009 (ip), vehicle: saline): 107 % of control [survivor count not shown]
- T/C [3]: 131 % of control [survivor count not shown]

From PubChem BioAssay AID328 (DTP/NCI, 2004)
